Experimental data from PubChem BioAssay AID504467 (National Center for Advancing Translational Sciences (NCATS), 2011).
Screen size: about 330,000 compounds; about 7,700 (2.3%) were called active. This list was built around the results that the source calls inconclusive (neither active nor inactive); the mix of calls is not that of the screen. The call rests on the fitted dose curve; in most records, active means well fitted inhibition curve with a large enough effect; inconclusive means small, poorly fitted or top-dose-only effect, or effect the other way; inactive means flat fitted curve, though single readings scatter. Where the call is inconclusive, the potency comes from a doubtful curve fit.

Assay: qHTS screen for small molecules that inhibit ELG1-dependent DNA repair in human embryonic kidney (HEK293T) cells expressing luciferase-tagged ELG1; further: nearly all actives have a fitted effect of over 55% in size
Conditions: HEK293T ELG1-luciferase reporter, luminescence, 16 h, DNA damage induced by 5-fluorouridine; series mostly up to 46.1 µM
How it was run: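 Reporter activity after DNA damage by 5-fluorouridine is monitored. Compound-treated cells incubate 16 hr at 37 °C, then ONE-Glo is added for 30 min before luminescence reading.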
Potency means the concentration at half of the fitted maximal effect.

Question: Which Potency does the source give for Cc1ccc(/C=N/NC(=O)c2ccc(-c3ccccc3)cc2)o1 here?
Answer: inactive

Question: For CC(C)N(C(=O)CSc1ccc(S(=O)(=O)N2CCCCC2)cn1)c1ccccc1, which Potency is on record?
Answer: inconclusive: 23.1 µM [inhibitor, single point]

Question: For CC(=O)N1CCN(c2ccc(NCc3ccc(C(C)C)cc3)cc2)CC1, which Potency is on record?
Answer: inconclusive: 2.31 µM [inhibitor, full curve]

Question: Which Potency does the source give for Cn1nc(-c2ccccc2)cc1NC(=O)Nc1ccc(F)cc1 here?
Answer: inconclusive: 29.1 µM [activator, single point]

Question: With O=C(/C=C/c1ccccc1[N+](=O)[O-])c1ccccc1Br as the compound, how does the Potency read?
Answer: inconclusive: 23.1 µM [activator, single point]

Question: With Cc1cc(C(F)F)n2nc(C(=O)Nc3cc(C)on3)nc2n1 as the compound, how does the Potency read?
Answer: inactive

Question: Which Potency does the source give for COc1cc(NC(=O)CCn2c(=O)[nH]c3ccsc3c2=O)cc(OC)c1 here?
Answer: inconclusive: 20.6 µM [inhibitor, single point]

Question: Which Potency does the source give for CCOC(=O)C1CCCN(C2=C(NS(=O)(=O)c3ccc(Br)cc3)C(=O)c3ccccc3C2=O)C1 (stereo not given) here?
Answer: inconclusive: 14.6 µM [inhibitor, partial curve, poor fit]

Question: For CC(=O)N(Cc1c(C)nn(-c2ccccc2)c1Cl)c1ccc(Cl)cc1, which Potency is on record?
Answer: inactive

Question: With CCCCCCc1ccc(N2C[C@H](Cc3ccccc3)[C@@H](CC(=O)Nc3ccccc3)C2=O)cc1 as the compound, how does the Potency read?
Answer: inactive

Question: With Cc1nc(NC(=O)CCc2ccccc2)sc1C as the compound, how does the Potency read?
Answer: inconclusive: 3.55 µM [activator, partial curve, poor fit]

Question: Which Potency does the source give for CC(=O)c1ccc(OCc2cc(C(=O)N3CC4C[C@@H]5CC3C[C@H](C4)C5)no2)cc1 here?
Answer: inconclusive: 18.3 µM [activator, partial curve]

Question: With O=S(=O)(Nc1cccc(S(=O)(=O)N2CCOCC2)c1)c1cccs1 as the compound, how does the Potency read?
Answer: inactive

Question: Which Potency does the source give for COc1ccc(C(=O)NCCn2cc(SCC(=O)NCC3CCCO3)c3ccccc32)cc1OC (stereo not given) here?
Answer: inconclusive: 18.3 µM [inhibitor, partial curve]

Question: With Cc1cc(OCCCCCNCCO)ccc1Cl as the compound, how does the Potency read?
Answer: inconclusive: 29.1 µM [activator, single point]

Question: With O=C1NC2(CCSC2)C(=O)N1CC(=O)N(Cc1ccccc1)C1CCS(=O)(=O)C1 (stereo not given) as the compound, how does the Potency read?
Answer: inactive

Question: With CCOc1cc(N2CCOCC2)c(OCC)cc1NC(=O)CN1C(=O)NC2(CCc3ccccc32)C1=O (stereo not given) as the compound, how does the Potency read?
Answer: inconclusive: 18.4 µM [inhibitor, single point]

Question: For O=C(O)c1ccc(S(=O)(=O)NCC2CCCO2)cc1 (stereo not given), which Potency is on record?
Answer: inactive

Question: For COc1cc2[nH]c(=S)nc(NCCC(C)C)c2cc1OC, which Potency is on record?
Answer: inactive

Question: Which Potency does the source give for CN1CCN(/N=C/c2ccc(-c3ccc([N+](=O)[O-])cc3)o2)CC1 here?
Answer: inconclusive: 18.3 µM [activator, single point]

Question: Which Potency does the source give for Cc1ccccc1C(=O)Nc1ccnn1C1CCN(C(=O)c2cnsn2)CC1 here?
Answer: inconclusive: 20.6 µM [activator, single point]

Question: Which Potency does the source give for O=C(NNC(=O)C1CC=CCC1)c1ccccc1Br (stereo not given) here?
Answer: inconclusive: 18.3 µM [activator, partial curve, poor fit]

Question: Which Potency does the source give for CC(C)COn1c(=S)[nH]c2ccccc2c1=O here?
Answer: inconclusive: 0.517 µM [activator, full curve, poor fit]

Question: With COc1ccccc1/C=C/C=N/NC(=O)CCn1cnc2ccccc21 as the compound, how does the Potency read?
Answer: inconclusive: 29.1 µM [inhibitor, single point]

Question: For CC1(c2nnc(-c3ccccc3)o2)CC(c2ccc(Cl)cc2)=NO1 (stereo not given), which Potency is on record?
Answer: inconclusive: 29.1 µM [inhibitor, single point]

Question: For CCOc1ccc(C(=O)NCC(=O)NC(C)c2ccc(-n3ccnc3)cc2)cc1OCC (stereo not given), which Potency is on record?
Answer: inconclusive: 20.6 µM [inhibitor, partial curve, poor fit]

Question: Which Potency does the source give for CCc1sc(NC(C)=O)nc1-c1ccccc1 here?
Answer: inconclusive: 25.9 µM [activator, single point]

Question: Which Potency does the source give for CCOC(=O)C(C)Sc1ncc(OC)c(Sc2ccc(Cl)cc2)n1 (stereo not given) here?
Answer: inactive

Question: Which Potency does the source give for COc1ccc2cc(C(c3nnnn3C(C)(C)C)N3CCc4ccccc4C3)c(=O)[nH]c2c1 (stereo not given) here?
Answer: inconclusive: 20.6 µM [inhibitor, single point]

Question: Which Potency does the source give for C=CCOC(=O)C1=C(C)NC(SCC)=C(C#N)C1c1ccc(Cl)cc1 (stereo not given) here?
Answer: inconclusive: 18.4 µM [inhibitor, partial curve]

Question: Which Potency does the source give for COC(=O)NCCOc1nc(N(C)C)nc(N(C)C)n1 here?
Answer: inconclusive: 23.1 µM [activator, partial curve, poor fit]

Question: With Cc1nc([N+](=O)[O-])c(C(=O)OCc2ccccc2C#N)n1C as the compound, how does the Potency read?
Answer: inactive

Question: Which Potency does the source give for Fc1ccc(-c2nnsc2Sc2ccccn2)cc1 here?
Answer: inconclusive: 23.1 µM [activator, partial curve, poor fit]

Question: With COc1ccccc1-n1c(SCC(=O)Nc2ccccc2F)nc2[nH]ncc2c1=O as the compound, how does the Potency read?
Answer: inconclusive: 4.11 µM [activator, full curve, poor fit]

Question: For COc1ccc(Cl)cc1NC(=O)CN(C)C(=O)c1ccc(OCc2ccccc2)c(OC)c1, which Potency is on record?
Answer: inconclusive: 25.9 µM [inhibitor, single point]

Question: Which Potency does the source give for COc1cc(/C=C/C(=O)Nc2ccc3nc4n(c(=O)c3c2)CCCC4)cc(OC)c1OC here?
Answer: active: 4.61 µM

Question: Which Potency does the source give for CN=C(NC1CCCCC1)c1ccc(Cl)cc1 here?
Answer: inactive

Question: Which Potency does the source give for CC(C)(C)c1ccc(-c2nnc3sc(-c4ccncc4)nn23)cc1 here?
Answer: inconclusive: 29.1 µM [inhibitor, single point]

Question: Which Potency does the source give for CC(C)(C)c1cc[n+](/C(C(=S)Nc2ccccc2F)=C(/[O-])c2ccc3c(c2)OCCO3)cc1 here?
Answer: inactive

Question: With CN(C)CCCN(C(=O)c1ccc(S(=O)(=O)N2CCCCCC2)cc1)c1nc2ccc(F)cc2s1 as the compound, how does the Potency read?
Answer: active: 8.2 µM

Question: For O=S(=O)(c1ccc(-c2csc(-c3cccnc3)n2)cc1)N1CCCCC1, which Potency is on record?
Answer: active: 23.1 µM

Question: For CCOC(=O)c1c(C)[nH]c(C)c1C(=O)COC(=O)c1cc2ccccc2cc1OC, which Potency is on record?
Answer: inconclusive: 32.6 µM [inhibitor, single point]

Question: With Cc1ccc(NC(=O)C2CCN(S(=O)(=O)c3c(C)n[nH]c3C)CC2)c(C)c1 as the compound, how does the Potency read?
Answer: inactive

Question: For O=C(COC(=O)Cn1nnc(-c2ccccc2)n1)Nc1ccccc1Br, which Potency is on record?
Answer: inactive

Question: Which Potency does the source give for Cc1ccccc1NC(=O)Nc1ccccn1 here?
Answer: inconclusive: 20 µM [activator, single point]

Question: With Cc1nc(CN(C)C(=O)c2cc(COc3ccc4ncccc4c3)on2)cs1 as the compound, how does the Potency read?
Answer: inconclusive: 1.83 µM [inhibitor, partial curve]

Question: For COc1ccc(-c2cccc(C(=O)NCC(=O)O)c2)cc1, which Potency is on record?
Answer: inconclusive: 18.4 µM [activator, single point]

Question: For CCCCN(C)CCNC(=O)CCn1nc(-c2ccc(Cl)cc2)ccc1=O, which Potency is on record?
Answer: inactive

Question: With CO/N=C/C(=N\Nc1ccc(OC)cc1)C(=O)c1ccc(F)cc1 as the compound, how does the Potency read?
Answer: inconclusive: 20.6 µM [inhibitor, single point]

Question: With CNC(=O)/C(C#N)=C/c1ccc(-c2nc3ccccc3s2)o1 as the compound, how does the Potency read?
Answer: inconclusive: 4.11 µM [activator, full curve]

Question: With Cc1n[nH]c(=O)c2c(NC(=O)COC(=O)Cc3ccc(Cl)cc3Cl)oc(C)c12 as the compound, how does the Potency read?
Answer: inactive

Question: Which Potency does the source give for O=C(CSc1nnc(SCc2ccccc2Cl)s1)N/N=C/c1c[nH]c2ccccc12 here?
Answer: inactive

Question: With Cc1c(C)c2ccc(OC(C)C(=O)NCc3ccccn3)cc2oc1=O (stereo not given) as the compound, how does the Potency read?
Answer: inactive

Question: For CC(CC(=O)NCCc1ccc(Cl)cc1)S(=O)(=O)c1ccc2c(c1)NC(=O)CO2 (stereo not given), which Potency is on record?
Answer: inconclusive: 32.6 µM [inhibitor, partial curve, poor fit]

Question: Which Potency does the source give for Cc1cc(N/N=C/c2ccc(F)cc2)nc(-n2nc(C)cc2C)n1 here?
Answer: inconclusive: 23.1 µM [inhibitor, partial curve]

Question: With Cc1ccc(CNC(=O)/C=C/c2ccccc2Cl)cc1 as the compound, how does the Potency read?
Answer: inconclusive: 18.4 µM [activator, partial curve, poor fit]

Question: With Cc1cc(C)c(C(=O)CN2C(=O)NC3(CCCCCC3)C2=O)cc1C as the compound, how does the Potency read?
Answer: inconclusive: 13 µM [activator, partial curve]

Question: With O=C(OC1CCCCC1=O)c1cccc(S(=O)(=O)N2CCOCC2)c1 (stereo not given) as the compound, how does the Potency read?
Answer: inactive

Question: For O=C(CN1CCN(S(=O)(=O)N2CCCCC2)CC1)Nc1ccc(Cl)c(Cl)c1, which Potency is on record?
Answer: inconclusive: 29.1 µM [inhibitor, single point]

Question: With Cc1[nH]nc(SCC(=O)NC2CCCC2)c1[N+](=O)[O-] as the compound, how does the Potency read?
Answer: inconclusive: 29.1 µM [activator, single point]

Question: For Cc1ccc(CSc2nc3ccccc3c(=O)n2C)cc1, which Potency is on record?
Answer: inconclusive: 23.1 µM [inhibitor, partial curve]

Question: With CCc1ccc(CN(C)C(=O)c2cccc(S(=O)(=O)Nc3ccccc3OC)c2)cc1 as the compound, how does the Potency read?
Answer: inconclusive: 29.1 µM [inhibitor, single point]

Question: Which Potency does the source give for Cc1ccc(-c2cn3c(n2)SCC3)cc1 here?
Answer: inconclusive: 5.8 µM [activator, partial curve]

Question: For Oc1ccc(-c2n[nH]c(=S)n2-c2ccc3c(c2)OCCO3)c(O)c1, which Potency is on record?
Answer: active: 3.66 µM

Question: For Cc1cc(=O)oc2cc(OC(C)C(=O)O)c(Cl)cc12 (stereo not given), which Potency is on record?
Answer: inconclusive: 0.231 µM [inhibitor, single point]

Question: Which Potency does the source give for O=C(CCCN1C(=O)/C(=C/c2cccs2)SC1=S)Nc1ccc(O)cc1 here?
Answer: inconclusive: 25.9 µM [inhibitor, single point]

Question: With CSC1=N/C(=C\c2ccccc2F)C(=O)S1 as the compound, how does the Potency read?
Answer: inactive

Question: Which Potency does the source give for Cc1cc(SCC(=O)N(CC(C)C)c2c(N)n(CC(C)C)c(=O)[nH]c2=O)nc2ccccc12 here?
Answer: inactive

Question: For O=C(Nc1nnc(C2CC2)s1)C1CCCO1 (stereo not given), which Potency is on record?
Answer: inconclusive: 20.6 µM [activator, single point]

Question: With O=C(CN1CCc2ccccc21)NCc1ccc2c(c1)OCO2 as the compound, how does the Potency read?
Answer: inconclusive: 18.4 µM [activator, partial curve, poor fit]
